Assay results from US20080214563A1, “Benzimidazole Thiophene Compounds As Plk Modulators” (priority 2005, published 2008).
Some of these results come from one statement about several compounds together.

Experiment: Intravenous pharmacokinetics in CD-1 mouse
Format: in vivo
Settings: iv bolus, male CD-1 mouse, dose 1.9-7.4 mg/kg per compound (Table 3)
Protocol: Preliminary investigation of the intravenous pharmacokinetics of compounds of invention were carried out in fed conscious CD-1 mouse. Compounds were formulated as 1-10 mg/kg, 5 mL/kg, 1-2 mg/mL solution (Table 3). Twenty one male mice (n=3 mice per time point) (˜30 g) received dose solution by bolus injection in the tail vein. The formulation for iv were either 20% beta cyclodextrin in saline pH 3.5-6 or PEG400:ethanol:saline (50:15:35 v/v). Blood samples (˜0.4 mL) were collected terminally by cardiac puncture following anesthetization in a CO2 chamber at 2, 15, 30, 60 min, 2, 4, and 6 h following iv administration. Blood samples were collected into tubes containing heparin and placed on crushed ice promptly after collection. Plasma was collected by centrifugation, frozen and stored at about −80° C. prior to analysis. Blood or plasma concentrations were determined by LC/MS/MS equipped with an electrospray ion source and using calibration curves for the appropriate matrix. The lower level of quantitation (LLQ) was 10 ng/mL. Blood or plasma concentration-time data were analyzed by non-compartmental methods using the computer program WinNonlin Professional (version 4.1). Area under the blood or plasma concentration-time curve (AUC) was calculated using the linear trapezoidal rule for each incremental trapezoid up to Cmax, and the log trapezoidal rule for each trapezoid thereafter. The terminal elimination rate constant (λz) was derived from the log-linear disposition phase of the concentration-time curve using least-squares regression analysis with visual inspection of the data to determine the appropriate number of terminal data points for regression analysis.
Following iv administration, the total body clearance (CL) was estimated. CL was calculated by dividing the dose by AUC(0−t). The clearance values were assigned as follows. Low <30 mL/min/kg, moderate 30-70 mL/min/kg, high >70 mL/min/kg. The assignment was based on hepatic blood flow i.e. hepatic blood flow of 0-30% low, 30-70% moderate and 70-100% high. The hepatic blood flow in mouse is ˜100 mL/min/kg.

SMILES	AUC (0-t)	Plasma CL
C[C@@H](Oc1cc(-n2cnc3cc(-c4cnn(C)c4)ccc32)sc1C(N)=O)c1ccccc1Cl [Example 9, 3-{[(1R)-1-(2-Chlorophenyl)ethyl]oxy}-5-[5-(1-methyl-1H-pyrazol-4-yl)-1H-benzimidazol-1-yl]-2-thiophenecarboxamide]	higher area under plasma concentration versus time curve (AUC)	lower clearance (CL)
CCN1CCN(CCCn2cc(-c3ccc4c(c3)ncn4-c3cc(O[C@H](C)c4ccccc4Cl)c(C(N)=O)s3)cn2)CC1 [Example 8, 3-{[(1R)-1-(2-Chlorophenyl)ethyl]oxy}-5-(5-{1-[3-(4-ethyl-1-piperazinyl)propyl]-1H-pyrazol-4-yl}-1H-benzimidazol-1-yl)-2-thiophenecarboxamide]	higher area under plasma concentration versus time curve (AUC)	lower clearance (CL)
C[C@@H](Oc1cc(-n2cnc3cc(-c4ccnc(N)c4)ccc32)sc1C(N)=O)c1ccccc1C(F)(F)F [Example 4, 5-[5-(2-Amino-4-pyridinyl)-1H-benzimidazol-1-yl]-3-({(1R)-1-[2-(trifluoromethyl)phenyl]ethyl}oxy)-2-thiophenecarboxamide]	higher area under plasma concentration versus time curve (AUC)	lower clearance (CL)
C[C@@H](Oc1cc(-n2cnc3cc(-c4ccc(NC5CCN(C)CC5)nc4)ccc32)sc1C(N)=O)c1ccccc1Cl [Example 6, 3-{[(1R)-1-(2-Chlorophenyl)ethyl]oxy}-5-(5-{6-[(1-methyl-4-piperidinyl)amino]-3-pyridinyl}-1H-benzimidazol-1-yl)-2-thiophenecarboxamide]	higher area under plasma concentration versus time curve (AUC)	lower clearance (CL)
C[C@@H](Oc1cc(-n2cnc3cc(-c4ccc(N5CCNCC5)nc4)ccc32)sc1C(N)=O)c1ccccc1C(F)(F)F [Example 1, 5-{5-[6-(1-piperazinyl)-3-pyridinyl]-1H-benzimidazol-1-yl}-3-({(1R)-1-[2-(trifluoromethyl)phenyl]ethyl}oxy)-2-thiophenecarboxamide]	higher area under plasma concentration versus time curve (AUC)	lower clearance (CL)
C[C@@H](Oc1cc(-n2cnc3cc(-c4ccnc(NC5CCN(C)CC5)c4)ccc32)sc1C(N)=O)c1ccccc1C(F)(F)F [Example 3, 5-(5-{2-[(1-Methyl-4-piperidinyl)amino]-4-pyridinyl}-1H-benzimidazol-1-yl)-3-({(1R)-1-[2-(trifluoromethyl)phenyl]ethyl}oxy)-2-thiophenecarboxamide]	higher area under plasma concentration versus time curve (AUC)	lower clearance (CL)
C[C@@H](Oc1cc(-n2cnc3cc(-c4cn[nH]c4)ccc32)sc1C(N)=O)c1ccccc1C(F)(F)F [Example 5, 5-[5-(1H-Pyrazol-4-yl)-1H-benzimidazol-1-yl]-3-({(1R)-1-[2-(trifluoromethyl)phenyl]ethyl}oxy)-2-thiophenecarboxamide]	higher area under plasma concentration versus time curve (AUC)	lower clearance (CL)
C[C@@H](Oc1cc(-n2cnc3cc(-c4ccc(N5CCNCC5)nc4)ccc32)sc1C(N)=O)c1ccccc1Cl [Example 7, 3-{[(1R)-1-(2-Chlorophenyl)ethyl]oxy}-5-{5-[6-(1-piperazinyl)-3-pyridinyl]-1H-benzimidazol-1-yl}-2-thiophenecarboxamide]	higher area under plasma concentration versus time curve (AUC)	lower clearance (CL)
C[C@@H](Oc1cc(-n2cnc3cc(-c4ccnc(N5CCN(C)CC5)c4)ccc32)sc1C(N)=O)c1ccccc1C(F)(F)F [Example 2, 5-{5-[2-(4-Methyl-1-piperazinyl)-4-pyridinyl]-1H-benzimidazol-1-yl}-3-({(1R)-1-[2-(trifluoromethyl)phenyl]ethyl}oxy)-2-thiophenecarboxamide]	higher area under plasma concentration versus time curve (AUC)	lower clearance (CL)
